# Values joined by “and” are separate entries in the source; they are usually repeats but may differ in a detail not shown here. Equal values may be shown once. Read-outs that look alike come from different tables or passages of the source. For at least one compound, name, drawing or mass did not settle the structure.
# Experiments:
# [1] = tested on: Ba/F3 cells stably expressing HER2 mutations; assay: Ba/F3 HER2 mutant cell viability (Cell Titer Glo), 72 hours; format: cell-based
# Method: Briefly, stable Ba/F3 cell lines were generated by retroviral transduction of Ba/F3 cell line for 12 hours. […] Three days after transduction, 2 μg/ml puromycin (Invitrogen) was added to the RPMI media. After 5 days of selection, cells were stained with FITC-HER2 (Biolegend) sorted by FACS. Cell lines were then grown in the absence of IL-3 for two weeks and cell viability was assessed every three days using the Cell Titer Glo assay (Progema).
# Briefly, 2000-3000 cells per well were plated in 384-well plates (Greiner Bio-One) in technical triplicate. Cells were treated with seven different concentrations of tyrosine kinase inhibitors or vehicle alone at a final volume of 40 μL per well. After 3 days […], 11 μL of Cell Titer Glo was added to each well. Plates were shaken for 15 minutes, and bioluminescence was determined using a FLUOstar OPTIMA multi-mode micro-plate reader (BMG LABTECH). Bioluminescence values were normalized to DMSO treated cells, and normalized values were plotted in GraphPad Prism using non-linear regression fit to normalized data with a variable slope.
# [2] = tested on: exon 20 insertion mutations NSCLC; conditions: NSCLC patients with exon 20 insertion mutations, two separate studies; cited from earlier work
# [3] = tested on: HER2 activating mutations; conditions: cited from earlier work
compound,measurement,setting,value
CN(C)C/C=C/C(=O)Nc1cc2c(Nc3ccc(F)c(Cl)c3)ncnc2cc1O[C@H]1CCOC1 [afatinib],inhibitory activity,"[1]; HER2 mutants across all three exons (19, 20, 21)",had inhibitory activity
same,response rates,[2],18.2% and 18.8%
same,sensitivity of HER2 mutations to TKI,[3]; mutations within the HER2 extracellular domain,robust sensitivity
C=CC(=O)N1CCC[C@@H](n2nc(-c3ccc(Oc4ccccc4)cc3)c3c(N)ncnc32)C1 [ibrutinib],activity on cell viability,[1]; cells expressing D769 exon 19 variants and exon 21 variants,did demonstrate activity
same,inhibiting cell viability,[1]; cells expressing exon 20 mutations,not effective
C=CC(=O)Nc1cccc(Nc2nc(Nc3ccc(N4CCN(C(C)=O)CC4)cc3OC)ncc2C(F)(F)F)c1 [rociletinib],sensitivity of HER2 mutations to TKI,[3]; HER2 exon 20 mutations,extensive resistance

# — patent publication US20220041751A1, “COMBINATION THERAPY FOR THE TREATMENT OF CANCER” (Board of Regents, The University of Texas System, priority 2018, published 2022)
